Measured values as given in US11066455B2, “Tmem100 peptides and variants thereof and their use in treating or preventing diseases or conditions” (The Johns Hopkins University, priority 2014, dated 2021).
Results are given in words; binding and its absence hold for the method and conditions named. A result given as binding can be weak or reduced; the word gives no strength.

Key:
[1] = target: TRPV1 (expressed in heterologous cells: CHO, HEK293T); assay: summary of electrophysiological and biochemical results
[2] = target: TRPA1 (expressed in heterologous cells: CHO, HEK293T); assay: as above
[3] = target: TRPV1 (expressed in heterologous cells: CHO, HEK293T); assay: FRET-TIRF
[4] = target: TRPA1 (expressed in heterologous cells: CHO, HEK293T); assay: FRET-TIRF

binding [1]: binds | binding [2]: binds | binding [3]: binds | binding [4]: binds
B1: Tmem100 (wild-type, full-length, mouse) (other)
chain: MTEESTKENLGAPKSPTPVTMEKNPKREVVVTTGPLVSEVQLMAATGGAELSCYRCIIPFAVVVFITGIVVTAVAYSFNSHGSIISIFGLVLLSSGLFLLASSALCWKVRQRNKKVKRRESQTALVVNQRCLFA
notes: also called Pirt2; T100
